Patent US20090099253A1, “Internally Masked Neopentyl Sulfonyl Ester Cyclization Release Prodrugs of Acamprosate, Compositions Thereof, and Methods of Use” (XenoPort, Inc., priority 2007, published 2009)
Some entries share one result that the patent states for a list of compounds. At least one compound was matched to its structure with a doubt left.

Experiment: Bioavailability of acamprosate following oral or colonic administration of acamprosate prodrugs to rats
Settings: rat, oral (po) administration, 70 mg-equivalents acamprosate per kg; F% vs iv acamprosate, dose normalized

For `CC(=O)NCCCS(=O)(=O)OCC1(C)CCC(=O)S1` (racemic) [Compound 3, rac-(2-Methyl-5-oxo-2-2,3,4-trihydrothienyl)methyl [3-acetylamino)propyl]sulfonate], the “acamprosate oral bioavailability relative to the acamprosate oral bioavailability of an equivalent dose of acamprosate itself in an equivalent dosage form” value was “at least 3 times”.
